Data taken from US20130287795A1.
These are yes or no findings as the source states them, for the method shown. Some results given as binding are weak or reduced against the parent protein; the word gives no strength.

The chains behind the UniProt entries cited, without tags or fusion partners. Residues count along the entry.
UniProt P52800, residues 27-227: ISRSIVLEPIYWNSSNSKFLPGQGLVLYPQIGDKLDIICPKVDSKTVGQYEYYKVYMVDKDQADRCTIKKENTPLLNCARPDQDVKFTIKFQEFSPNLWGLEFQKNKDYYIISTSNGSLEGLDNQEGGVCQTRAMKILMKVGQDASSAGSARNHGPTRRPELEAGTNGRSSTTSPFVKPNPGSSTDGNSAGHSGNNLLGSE

B1: scFv B11 (human anti-ephrin B2 single chain variable fragment) (scFv)
scFv: QVQLVQSGAEVKKPGASVRLSCEASGYTFTDYYIHWVRQAPGQGLEWMGWMNPSSGNTGYAQKFQGRVTMTRNTSISTAYMELSSLRSEDTAVYYCARDITGTATGFDYWGQGTLVTVSSGGGGSGGGGSGGGGSEIVLTQSPLSLPVTLGQPASISCRSSQSLLHSNGYNYLDWYLQKPGQSPQLLIYLGSNRASGVPDRFSGSGSGTDFTLKISRVEAEDVGVYYCMQGLLSPVTFGQGTRLDIKRTVAAPTAAAEQKLISEEDLNGAALEHHHHHH
B2: scFv 2B1 (human anti-ephrin B2 single chain variable fragment) (scFv)
scFv: QVQLVQSGGGLVQPGRSLRLSCAASGFTFDDYAMHWVRQAPGKGLEWVSGISWNSGSIGYADSVKGRFTISRDNAKNSLYLQMNSLRAEDTALYYCARGHRTSDAFDIWGQGTMVTVSSGGGGSGGGGSGGGGSQPVLTQPPSVSLAPGKTARITCGGDSIGLKSVHWYQQKPGQAPVLVMSSDSDRPSGIPDRFSGSNSGNTATLTITRVEAGDEADYYCQVWDSSSDHMVFGGGTKLTVLGQPKAAPSAAALEDYKDDDDKHHHHHH

Key:
[1] = target: recombinant mouse ephrin B2-Fc (R & D) (mouse) (UniProt P52800); test: immunoblot; periplasmic fraction of the scFv, detected with anti c-Myc and anti-mouse peroxidase conjugate
[2] = target: recombinant mouse ephrin B2-Fc (R & D) (mouse) (UniProt P52800); test: immunoblot (Western blot), confirmed by ELISA

Binder	binding [1]	binding [2]
B1	binds	binds
B2	binds	binds
